Binding data for 4 molecules are collected here from patent US20050059087A1, “Antibodies directed to the deletion mutants of epidermal growth factor receptor and uses thereof” (priority 2003, published 2005).

For assay [1], the target named is EGFRvIII-rabbit Fc fusion protein (human; rabbit) (UniProt P00533). The experiment in a line: Western blot, EGFRvIII rabbit Fc fusion protein, reduced. On the technique in general: Immunoblotting shows a protein as a band on a membrane.
For assay [2] the target is unchanged. The experiment in a line: Western blots of purified protein and cell lysate.
Assay [3] shares this target. Briefly: Western blot, EGFRvIII rabbit Fc fusion protein, native.
The target is the same in assay [4]. Briefly: Western blot, purified EGFRvIII.

Changes are numbered by the printed parent chain. No constants are given. Whether binding was seen depends on the method and setting. Some binding calls cover weakened binding; strength is not graded here.

B1: SC-EGFRvIII-XG1-139 (antibody, V domains shown)
VH: EVQVLESGGGLVQPGGSLRLSCAASGFTFSSYAMSWVRQAPGKGLEWVSAISGSGGSTNYADSVKGRFTISRDNSKNTLYLQMNSLRAEDTAVYYCAGSSGWSEYWGQGTLVTVSS
VL: DIQMTQSPSSLSASVGDRVTITCRASQGIRNNLAWYQQKPGKAPKRLIYAASNLQSGVPSRFTGSGSGTEFTLIVSSLQPEDFATYYCLQHHSYPLTSGGGTKVEIK
As to B1, the binding entry in assay [1] and in assay [2] was “binds” each time.

B2: SC-EGFRvIII-XG1-250 (antibody, V domains shown)
VH: B1 VH with V2G, V4L, L11W, G16E, M83V, A88V
VL: DIQMTQSPSSLSASVGDSVTITCRTSQGIRKNLGWYQQKPGKAPKRLIYAASSLQSGVPSRFSGSGSGTEFTLTISRLQPEDFATYYCLQHHSYPLTFGGGTRVEIR
Take B2: the binding entry in assay [3], in assay [1] and in assay [2] was “binds” throughout.

B3: AB-EGFRvIII-XG1-095 (antibody, V domains shown)
VH: QVQLQESGPFLVKPSQTLSLTCTVSGGSISSGGYYWSWIRQHPGKGLEWIGFIYYRGNTYYNPSLKSRVTISVDTSKNQFSLKLSSVTAADTAVYYCARDGYCSRTGCYGGWFDPWGQGTLVTVSP
VL: DIVMTQTPLSSPVTLGQPASISCRSSQSLIHTDGNIYLSWLQQRPGQPPRLLIYKISNRFSGVPDRFSGSGAGTDFTLKISRVEAEDVGVYYCMQGTQFPITFGQGTRLEIK
With B3, the binding result in assay [3], in assay [1] and in assay [2] was “binds” throughout.

B4: SC-EGFRvIII-XG1-211 (antibody, V domains shown)
VH: QVQLVESGGGVVQPGRSLRLSCVASGFTLSSYGMHWVRQAPGKGLEWVAVTSYDGSKKDYADSAKGRFTISRDNSKNTLYLQMNSLRAEDTAVYYCVSEGYCSSSSCYKYYYYGMDVWGQGTTVTVSS
VL: DIVMTQSPLSLPVTPGEPASISCRSSQSLLYRNGNNYLDWYLQRPGQSPQLLIYLGSNRASGVPDRFSGSGSGTDFTLKISRVEAEDVGVYYCMQALQTPRTFGQGTKVEIK
Consider B4, for which the binding result in assay [4], in assay [3] and in assay [1] was “binds” each time.
